The list does not hold the whole screen: it gathers tests that were run many times, whatever their T/C, doses with no T/C, and many T/C values between a quarter and a half above the control. Further doses and runs are listed elsewhere. T/C is the treated group as % of the vehicle group. Schedule codes are those of the source, read here as Q, the interval in days (D) or hours (H), X, the number of doses. Some T/C values are followed by the survivors on the day toxicity was checked, most often the fifth; without a count, all were alive then. Some entries were tested several times; the results are listed from low to high. Some doses have a count of surviving animals in place of a T/C: the source files T/C as zero there, which appears to mark a toxic dose or a test without result, not a measured value. Counts of survivors are from the toxicity check (mostly the fifth day) where no day follows; animals may have died later.

Here are results for 29 compounds from PubChem BioAssay AID180 (DTP/NCI, 2004).

The experiment concerns BDF1 mice, Adenocarcinoma 755 s.c., tumor weight T/C. As to the kind of experiment: NCI In Vivo Anticancer Drug Screen. Data for tumor model Adenocarcinoma 755 (subcutaneous) in B6D2F1 (BDF1) mice. Particulars: T/C endpoint: mean tumor weight, higher T/C = larger tumour; for T/C: evaluated on day 12. The method in brief:
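Tumor-bearing mice receive test compound while controls get vehicle alone. Antitumor effect is scored from survival or tumor dimensions as a T/C quotient.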

Setting [1] is: dose: 25.0 mg/kg/injection, schedule: Q01DX011 (ip), vehicle: carboxymethylcellulose (CMC).
Setting [2] is: dose: 100.0 mg/kg/injection, schedule: Q01DX011 (ip), vehicle: carboxymethylcellulose (CMC).
Setting [3] is: dose: 200.0 mg/kg/injection, schedule: Q01DX011 (ip), vehicle: carboxymethylcellulose (CMC).
[4] abbreviates: dose: 600.0 mg/kg/injection, schedule: Q01DX011 (ip), vehicle: carboxymethylcellulose (CMC).
[5] abbreviates: dose: 15.0 mg/kg/injection, schedule: Q01DX011 (ip), vehicle: methylcellulose (MC).
[6] abbreviates: dose: 50.0 mg/kg/injection, schedule: Q01DX011 (ip), vehicle: carboxymethylcellulose (CMC).

For `CC1CN1P(=S)(N1CCCCC1)N1CC1C` (stereo not drawn), for the setting “dose: 450.0 mg/kg/injection, schedule: Q01DX011 (ip), vehicle: carboxymethylcellulose (CMC)”, the survivor count was 0 of 10.
For `C[N+](C)(C)C(C(=O)c1ccccc1)c1ccccc1` (stereo not drawn), under “dose: 5.0 mg/kg/injection, schedule: Q01DX011 (ip), vehicle: carboxymethylcellulose (CMC)”, the T/C was 127 % of control [9 of 10 alive]. Also, for the setting “dose: 20.0 mg/kg/injection, schedule: Q01DX011 (ip), vehicle: carboxymethylcellulose (CMC)”, the survivor count is 0 of 10.
As for `CC1CN1P(=O)(Oc1ccccc1)N1CC1C` (stereo not drawn), the survivor count (dose: 100.0 mg/kg/injection, schedule: Q01DX011 (ip), vehicle: saline) is 6 of 10.
`N=[N+]=CC(=O)OCC(N)C(=O)O` (stereo not drawn): under “dose: 3.6 mg/kg/injection, schedule: Q01DX011 (ip), vehicle: carboxymethylcellulose (CMC)”, the T/C is 136 % of control [9 of 10 alive]. Besides, the survivor count (dose: 18.5 mg/kg/injection, schedule: Q01DX011 (ip), vehicle: carboxymethylcellulose (CMC)) is on record as 5 of 10.
For the compound `c1nc(N2CC2)c2ncn(C3CCCCC3)c2n1`, the T/C under setting [1] is 137 % of control. Under setting [2], the survivor count is 0 of 10.
Regarding `CCOc1ccc2nc(S(N)(=O)=O)sc2c1`, the survivor count reads like this: under setting [3], 5 of 10; (dose: 200.0 mg/kg/injection, schedule: Q01DX011 (ip), vehicle: methylcellulose (MC)) 5 of 10; (dose: 300.0 mg/kg/injection, schedule: Q01DX011 (ip), vehicle: carboxymethylcellulose (CMC)) 4 of 10; (dose: 400.0 mg/kg/injection, schedule: Q01DX011 (ip), vehicle: carboxymethylcellulose (CMC)) 1 of 10; under setting [4], 0 of 10.
`C/C(=N\NC(=O)c1ccncc1)c1cccc(Br)c1`: the T/C (dose: 1.8 mg/kg/injection, schedule: Q01DX011 (ip), vehicle: carboxymethylcellulose (CMC)) was 133 % of control [9 of 10 alive]. Further, the survivor count runs as follows: (dose: 7.5 mg/kg/injection, schedule: Q01DX011 (ip), vehicle: carboxymethylcellulose (CMC)) 6 of 10; (dose: 120.0 mg/kg/injection, schedule: Q01DX011 (ip), vehicle: methylcellulose (MC)) 1 of 10.
As for `CC(=O)OCC(=O)[C@@]1(O)CC[C@H]2[C@@H]3CCC4=CC(=O)[C@H](C)C[C@]4(C)[C@@]3(F)[C@@H](O)C[C@@]21C`, the survivor count (dose: 60.0 mg/kg/injection, schedule: Q01DX011 (sc), vehicle: steroid suspending solution) is on record as 4 of 10.
Consider `NC(CCSCc1ccc(N(CCCl)CCCl)cc1)C(=O)O` (stereo not drawn), for which the survivor count reads like this: (dose: 36.0 mg/kg/injection, schedule: Q01DX011 (ip), vehicle: saline) 5 of 10; (dose: 81.0 mg/kg/injection, schedule: Q01DX011 (ip), vehicle: saline) 3 of 10.
With `NS(=O)(=O)c1nc(S(=O)(=O)O)c2[nH]cnc2n1`, the T/C (dose: 15.5 mg/kg/injection, schedule: Q01DX011 (ip), vehicle: carboxymethylcellulose (CMC)) is 143 % of control.
In the case of `Oc1ccc2ccccc2c1-c1c(O)ccc2ccccc12`, the survivor count (dose: 100.0 mg/kg/injection, schedule: Q01DX011 (ip), vehicle: other) was 2 of 10.
As to `Cn1cnc([N+](=O)[O-])c1Sc1nc(N)nc2nc[nH]c12`, the survivor count reads like this: (dose: 5.0 mg/kg/injection, schedule: Q01DX011 (ip), vehicle: methylcellulose (MC)) 6 of 10; (dose: 10.0 mg/kg/injection, schedule: Q01DX011 (ip), vehicle: methylcellulose (MC)) 4 of 10; under setting [5], 1 of 10; (dose: 20.0 mg/kg/injection, schedule: Q01DX011 (ip), vehicle: saline) 4 of 10; (dose: 40.0 mg/kg/injection, schedule: Q01DX011 (ip), vehicle: saline) 4 of 10.
For `O=C(Nc1ccc(C2=NCCS2)cc1)c1ccc(C(=O)Nc2ccc(C3=NCCS3)cc2)cc1`, the T/C under setting [5] was 135 % of control and the T/C (dose: 60.0 mg/kg/injection, schedule: Q01DX011 (ip), vehicle: methylcellulose (MC)) is 134 % of control [7 of 10 alive].
As for `CC(=O)OCC1OC(n2cnc3c(N)ncnc32)C(OC(C)=O)C1OC(C)=O` (stereo not drawn), the T/C (dose: 60.0 mg/kg/injection, schedule: Q01DX011 (ip), vehicle: carboxymethylcellulose (CMC)) was 125 % of control [9 of 10 alive].
`O=C(CCCCC(=O)Nc1ccc(C(=O)Nc2cc(C3=NCCN3)cc(C3=NCCN3)c2)cc1)Nc1ccc(C(=O)Nc2cc(C3=NCCN3)cc(C3=NCCN3)c2)cc1`: the T/C (dose: 12.5 mg/kg/injection, schedule: Q01DX011 (ip), vehicle: carboxymethylcellulose (CMC)) was 42 [7 of 10 alive], 74 [7 of 10 alive], 78 [9 of 10 alive], 81 % of control; the T/C under setting [1] is 50, 63, 78, 97 % of control [9 of 10 alive]; the T/C under setting [6] was 32, 49 [9 of 10 alive], 76 % of control [9 of 10 alive]; the T/C under setting [2] was 26 [7 of 10 alive], 30 [8 of 10 alive], 45 [9 of 10 alive], 70 % of control [8 of 10 alive]. Besides, the survivor count was 6 of 10 under setting [6]; 4 of 10 and 5 of 10 under setting [3].
As for `O=S(=O)(F)c1nc(Cl)c2[nH]cnc2n1`, the T/C (dose: 12.5 mg/kg/injection, schedule: Q01DX011 (ip), vehicle: methylcellulose (MC)) was 125 % of control [8 of 10 alive].
Consider `CCOc1ccccc1C(=O)Nc1ccc(Br)cc1`, for which the survivor count under setting [4] was 6 of 12.
Take `Cn1c(=O)c2c(nc(Cl)n2CCl)n(C)c1=O`: under “dose: 75.0 mg/kg/injection, schedule: Q01DX011 (ip), vehicle: methylcellulose (MC)”, the survivor count is 3 of 10.
`Cn1c(=O)c2c(nc(C(O)(c3ccccc3)c3ccccc3)n2C)n(C)c1=O`: the survivor count (dose: 150.0 mg/kg/injection, schedule: Q01DX011 (ip), vehicle: methylcellulose (MC)) is given as 6 of 10 and the survivor count (dose: 300.0 mg/kg/injection, schedule: Q01DX011 (ip), vehicle: methylcellulose (MC)) was 2 of 10.
Turning to `O=c1[nH]cnc2nc(S(=O)(=O)F)[nH]c12`, where the note is “dose: 30.0 mg/kg/injection, schedule: Q01DX011 (ip), vehicle: carboxymethylcellulose (CMC)”, the T/C was 125 % of control.
For the compound `Cn1c(=O)c2[nH]c(N/N=C/c3ccccc3)nc2n(C)c1=O`, the survivor count (dose: 240.0 mg/kg/injection, schedule: Q01DX011 (ip), vehicle: methylcellulose (MC)) is on record as 6 of 10.
In the case of `C[C@]12CCCC[C@@H]1CC[C@@H]1[C@@H]2[C@@H](O)C[C@]2(C)[C@@H](N)CC[C@@H]12`, the T/C (dose: 11.0 mg/kg/injection, schedule: Q01DX011 (sc), vehicle: steroid suspending solution) is 146 % of control.
Take `CCC1OCCN1C(C)C` (stereo not drawn): the survivor count under setting [2] is on record as 0 of 10 and the survivor count under setting [3] is given as 0 of 10.
`Cc1cnc(SCc2ccccc2Cl)nc1SCc1ccccc1Cl`: the survivor count runs as follows: under setting [5], 6 of 10; (dose: 125.0 mg/kg/injection, schedule: Q01DX011 (ip), vehicle: methylcellulose (MC)) 5 of 10; (dose: 250.0 mg/kg/injection, schedule: Q01DX011 (ip), vehicle: methylcellulose (MC)) 5 of 10.
Regarding `C#C[C@]1(O)CC[C@H]2[C@@H]3CCc4cc(O)ccc4[C@H]3CC[C@@]21C`, under “dose: 680.0 mg/kg/injection, schedule: Q01DX011 (sc), vehicle: steroid suspending solution”, the survivor count is on record as 6 of 12.
Take `CCOC(=O)CCCc1ccc(N=NN(C)C(C)CC)cc1` (stereo not drawn): the survivor count (dose: 375.0 mg/kg/injection, schedule: Q01DX011 (ip), vehicle: carboxymethylcellulose (CMC)) is given as 1 of 10.
As for `COC1C(OC(=O)/C=C/C=C/C=C/C=C/C(=O)O)CCC2(CO2)C1C1(C)OC1CC=C(C)C` (stereo not drawn), where the note is “dose: 80.0 mg/kg/injection, schedule: Q01DX011 (ip), vehicle: methylcellulose (MC)”, the survivor count is listed as 3 of 10.
Turning to `Cn1c(N)nc2n[nH]nc2c1=O`, the survivor count (dose: 500.0 mg/kg/injection, schedule: Q01DX011 (ip), vehicle: carboxymethylcellulose (CMC)) was 4 of 10.
On to `CCNc1nncs1`, for which, under “dose: 113.8 mg/kg/injection, schedule: Q01DX011 (ip), vehicle: carboxymethylcellulose (CMC)”, the survivor count is recorded as 5 of 10.
